Paper PMC12104861, “Structural and mechanistic basis for the regulation of the chloroplast signal recognition particle by (p)ppGpp” (Febs Letters, 2025)
Results are given in words; binding and its absence hold for the method and conditions named.

Molecular target: T1, NG domain of the chloroplast SRP receptor (cp)FtsY, (cp)FtsY-NG (Arabidopsis thaliana) (UniProt O80842)
T1 sequence: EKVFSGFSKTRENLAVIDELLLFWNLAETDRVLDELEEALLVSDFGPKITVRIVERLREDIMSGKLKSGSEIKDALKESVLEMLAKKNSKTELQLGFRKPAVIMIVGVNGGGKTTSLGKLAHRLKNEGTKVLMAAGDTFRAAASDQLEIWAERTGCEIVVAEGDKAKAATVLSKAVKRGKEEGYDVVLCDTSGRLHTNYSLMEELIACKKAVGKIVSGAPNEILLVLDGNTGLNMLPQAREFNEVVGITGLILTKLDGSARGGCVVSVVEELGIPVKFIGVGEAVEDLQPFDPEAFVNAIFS
Assay: SEC; analytical SEC, Superdex 200 Increase 10/300 GL; 100 uM of each protein in buffer C, without GppNHp; both purified

binding: no binding (condition: without GppNHp)
B1: chloroplast signal recognition particle 54 kDa protein, (cp)SRP54 (protein, UniProt P37107 79-564)
chain: GQLTGGLEAAWSKLKGEEVLTKDNIAEPMRDIRRALLEADVSLPVVRRFVQSVSDQAVGMGVIRGVKPDQQLVKIVHDELVKLMGGEVSELQFAKSGPTVILLAGLQGVGKTTVCAKLACYLKKQGKSCMLIAGDVYRPAAIDQLVILGEQVGVPVYTAGTDVKPADIAKQGLKEAKKNNVDVVIMDTAGRLQIDKGMMDELKDVKKFLNPTEVLLVVDAMTGQEAAALVTTFNVEIGITGAILTKLDGDSRGGAALSVKEVSGKPIKLVGRGERMEDLEPFYPDRMAGRILGMGDVLSFVEKATEVMRQEDAEDLQKKIMSAKFDFNDFLKQTRAVAKMGSMTRVLGMIPGMGKVSPAQIREAEKNLLVMEAMIEVMTPEERERPELLAESPERRKRIAKDSGKTEQQVSALVAQIFQMRVKMKNLMGVMEGGSIPALSGLEDALKAEQKAPPGTARRKRKADSRKKFVESASSKPGPRGFGSGN
